# Data reported in patent US8133513B2, “Solid preparation having improved solubility” (Shionogi & Co., Ltd., priority 2006, dated 2012).
# Test: physchem
smiles,measurement,value
"COC(=O)C1=C(C)NC(C)=C(C(=O)OC)C1c1ccccc1[N+](=O)[O-] [nifedipine, Nifedipine]",solubility,~6 µg/mL
